This is an account of results in patent publication US8900444B2, “Switchable hydrophilicity solvents and methods of use thereof” (Queen's University at Kingston, priority 2009, dated 2014).

This series in a line: Soybean oil extraction from soy bean flakes (Example 2B).

SMILES strings stand for the structures.

`CN(C)C1CCCCC1` [N,N-dimethylcyclohexylamine]: the “time to reach similar amount of oil extracted as at 60 °C” value (25 °C) is reported as “at least 30 min”. For the setting “60 °C”, the “time to reach maximum amount of oil extracted” value is listed as no more than 15 min. For the same compound, the “SHS content of decanted soy oil” value (larger scale, 10 wt % piperazine solution, CO2 about 45 min, 24 h settling, 1H NMR) is listed as 11%.
